Data taken from PubChem BioAssay AID912, deposited by NCATS (2007).

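Uptake of anthrax lethal toxin into cultured cells, read by FRET (460/530 nm ratio) and reported from the 460 nm channel; the cell line is not named here. Each compound was tested as a concentration series from about 0.0005 to 40 µM. The number is the fitted AC50 of the 460 nm signal alone; lower values mean a more potent effect. A falling signal goes with compounds filed as inhibitors or cytotoxic, a rising one with activators or fluorescent compounds (inferred from the filed classes).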

Values are in µM. Common to all entries: measured here: 460 nm channel. This is a side read-out of the assay, for part of the compounds, not drawn at random. Potencies fitted to partial, single-point or poorly fitting curves are rough. The first word of each remark tells which way the curve ran; it can be opposite to the aim of the assay.

With CC(=O)/C=C(\C)Nc1ccc(-c2cnc(-c3ccccc3)o2)cc1 the assay gave AC50 31.62 µM (falling, single point).
With CC(=O)C1=C(O)C=C2Oc3c(C(C)=O)c(O)c(C)c(O)c3[C@]2(C)C1=O the assay gave AC50 31.62 µM (falling, single point).
With CC(C)(C)OC(=O)N1CCC[C@@H]1C(=O)N1CCC(C(=O)O)CC1 the assay gave AC50 5.012 µM (rising, full curve).
With CN(C)S(=O)(=O)c1cccc(C(=O)C2=C3SC=C(c4ccccc4)N3CC2)c1 the assay gave AC50 7.943 µM (falling, partial curve).
With CCn1c(=O)cc(SCC(=O)N2CCN(Cc3ccc4c(c3)OCO4)CC2)c2ccccc21 the assay gave AC50 10 µM (rising, single point).
With COc1cc(C(=O)Nc2nc(N)n(-c3ccccc3)n2)cc(OC)c1OC the assay gave AC50 2.512 µM (rising, single point).
With Cc1csc(NC(=O)CSc2nncn2C)n1 the assay gave AC50 5.012 µM (falling, partial curve).
With COc1cccc(-c2nc(NCc3cccs3)c3ccccc3n2)c1 the assay gave AC50 12.59 µM (falling, partial curve).
With CN1CCN(c2ncc3nc(-c4ccccc4)c(=O)n(Cc4cccs4)c3n2)CC1 the assay gave AC50 6.31 µM (rising, partial curve).
With COc1ccc(COC2OC[C@]3(C)[C@H]4C5=C(CN3C(=O)OC(C)(C)C)[C@H](C)C(CO)C(CO)C5CC[C@@H]24)cc1 (some centres undefined) the assay gave AC50 12.59 µM (rising, partial curve).
With CC(NC(=O)OCc1ccccc1)C(=O)N1CC(O)CC1C(=O)O (centres undefined) the assay gave AC50 0.1259 µM (falling, partial curve).
With COC(=O)C(CC(C)C)NC(=O)c1ccc(F)cc1 (centres undefined) the assay gave AC50 3.981 µM (falling, single point).
With O=C(Nc1sc2c(c1C(=O)NC1CCCCC1)CCC2)c1ccco1 the assay gave AC50 0.003162 µM (falling, full curve, poor fit).
With COc1ccccc1N1CCN(C/C(C)=C/c2ccccc2)CC1 the assay gave AC50 31.62 µM (falling, single point).
With COc1cc2c3cc1Oc1c(OC)c(OC)cc4c1[C@@H](Cc1ccc(O)c(c1)Oc1ccc(cc1)C[C@@H]3N(C)CC2)N(C)CC4 the assay gave AC50 2.512 µM (falling, full curve).
With COc1ccccc1N(C(=O)c1snc(C(N)=O)c1N)C(C(=O)NC1CCCC1)c1ccco1 (centres undefined) the assay gave AC50 12.59 µM (rising, partial curve).
With CN1CCN(CC(=O)Nc2ccc(Oc3ccccc3)cc2)CC1 the assay gave AC50 3.162 µM (falling, full curve, poor fit).
With COc1ccccc1N1CCN(CCN(C(=O)c2ccc(I)cc2)c2ccccn2)CC1 the assay gave AC50 0.003162 µM (falling, full curve, poor fit).
With COc1cccc(Nc2ncc3nc(CCc4ccccc4)c(=O)n(Cc4cccs4)c3n2)c1 the assay gave AC50 10 µM (rising, partial curve).
With COc1cccc(Nc2ncc3nc(CCc4ccccc4)c(=O)n(CCC#N)c3n2)c1 the assay gave AC50 15.85 µM (rising, partial curve).
With COCc1ccccc1Cn1cnc2c1c(=O)n(C)c(=O)n2C the assay gave AC50 0.01 µM (falling, full curve).
With Cc1ccc(-c2cnc(NC(=O)CCC(=O)N3CCCCC3)n2C)cc1 the assay gave AC50 31.62 µM (falling, single point).
With Cc1nc2cnc(Oc3cccc(Cl)c3)nc2n(CCC#N)c1=O the assay gave AC50 15.85 µM (rising, single point).
With O=C(CN(Cc1ccc(F)cc1)C(=O)CCC(=O)Nc1ccccn1)NCc1ccco1 the assay gave AC50 3.981 µM (rising, partial curve).
With C=C(C)CSc1nc(N)c(C#N)c(-c2ccc(C)cc2)c1C#N the assay gave AC50 2.512 µM (falling, single point).
With CC(C)C1O/C(=N/C(=O)Nc2ccc(Cl)c(Cl)c2)NC1=O (centres undefined) the assay gave AC50 6.31 µM (falling, partial curve).
With O=C(CCCc1ccc(-c2ccccc2F)cc1)Nc1ccc(O)cc1 the assay gave AC50 7.943 µM (falling, partial curve).
With O=C(Nc1ccc(N2CCCC2)c(Cl)c1)c1ccco1 the assay gave AC50 12.59 µM (falling, partial curve).
With CCCn1c(=O)c2ccccc2n2c(SCCOc3ccc(Cl)cc3)nnc12 the assay gave AC50 15.85 µM (falling, partial curve, poor fit).
With O=C(Nc1ccc(-c2noc(CCc3ccccc3)n2)cc1)c1cccnc1 the assay gave AC50 19.95 µM (falling, single point).
With CCOc1ccc(-c2nc(N)ncc2-c2ccccc2)c(O)c1 the assay gave AC50 0.3981 µM (falling, full curve, poor fit).
With O=C(CCCCCn1c(=S)[nH]c2cc3c(cc2c1=O)OCO3)N1CCN(Cc2ccccc2)CC1 the assay gave AC50 3.162 µM (rising, single point).
With CN1CCC[C@@H](CC2c3ccccc3Sc3ccccc32)C1 the assay gave AC50 10 µM (falling, partial curve).
With Cn1c(=O)c(-c2ccccc2)nc2cnc(N3CCNCC3)nc21 the assay gave AC50 12.59 µM (rising, partial curve).
With CCCOC(=O)C1=C(C)NC2=C(C(=O)CCC2)C1c1cccc(OC)c1OC (centres undefined) the assay gave AC50 15.85 µM (rising, partial curve).
With O=c1c(-c2ccc(F)cc2)nc2cnc(N3CCNCC3)nc2n1C1CC1 the assay gave AC50 10 µM (rising, partial curve).
With O=C(Nc1ccc2nc(-c3cccs3)c(-c3cccs3)nc2c1)N1CCOCC1 the assay gave AC50 12.59 µM (rising, partial curve).

4 of the entries, repeated:

For O=C(Nc1ccc2nc(-c3cccs3)c(-c3cccs3)nc2c1)N1CCOCC1 the result was AC50 12.59 µM (rising, partial curve).
For CN1CCN(c2ncc3nc(-c4ccccc4)c(=O)n(Cc4cccs4)c3n2)CC1 the result was AC50 6.31 µM (rising, partial curve).
For CC(=O)C1=C(O)C=C2Oc3c(C(C)=O)c(O)c(C)c(O)c3[C@]2(C)C1=O the result was AC50 31.62 µM (falling, single point).
For CC(C)C1O/C(=N/C(=O)Nc2ccc(Cl)c(Cl)c2)NC1=O (centres undefined) the result was AC50 6.31 µM (falling, partial curve).